Numbering of substitutions follows the chain as printed. These are yes or no findings as the source states them, for the method shown. For part of these data: Binding seen in cells or lysates may run through a third protein. For part of these data: Tags and fused reporters may be left off the sequences shown.
Key:
[1] = biological target: T1, PEAK1^IDR1 (residues 1082-1746), from insect cells (human) (UniProt Q9H792); assay: condition: 1000 nM (highest concentration of the series); SPR; biotinylated PEAK proteins (with or without Src phosphorylation) captured with a biotin CAPture kit, 14-3-3γ as analyte; multi-cycle, 8 points, 3-fold dilutions, 0.46-1000 nM, 60 s contact, 300 s dissociation; bivalent analyte model for the estimate; both purified
T1 sequence (chain, biotin (EZ-Link NHS-PEG4-Biotin, 1,1 molar ratio)): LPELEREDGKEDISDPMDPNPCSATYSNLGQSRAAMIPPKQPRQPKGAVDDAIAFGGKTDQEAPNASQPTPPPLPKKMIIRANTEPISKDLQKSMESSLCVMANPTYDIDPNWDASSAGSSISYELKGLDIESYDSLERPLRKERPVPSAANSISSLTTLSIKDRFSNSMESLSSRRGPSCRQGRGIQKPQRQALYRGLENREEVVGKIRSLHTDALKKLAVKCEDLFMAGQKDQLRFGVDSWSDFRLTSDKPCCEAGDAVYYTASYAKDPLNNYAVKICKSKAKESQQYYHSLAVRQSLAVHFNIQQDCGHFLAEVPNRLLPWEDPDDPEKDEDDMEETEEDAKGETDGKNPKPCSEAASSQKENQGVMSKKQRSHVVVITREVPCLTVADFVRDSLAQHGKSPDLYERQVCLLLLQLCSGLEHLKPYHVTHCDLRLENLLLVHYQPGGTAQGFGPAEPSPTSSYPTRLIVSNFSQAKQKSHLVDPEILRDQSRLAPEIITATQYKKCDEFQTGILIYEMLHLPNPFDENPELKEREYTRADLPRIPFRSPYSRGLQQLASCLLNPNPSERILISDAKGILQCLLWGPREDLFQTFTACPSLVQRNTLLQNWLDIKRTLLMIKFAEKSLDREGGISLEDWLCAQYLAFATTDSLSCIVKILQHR

[2] = biological target: T2, HA-tagged PEAK3^FL-A436E (human) (UniProt Q6ZS72); assay: co-IP; HEK293 cells transfected with HA-PEAK3^FL forms (alone or with Flag-PEAK3^FL WT), lysates on anti-HA agarose at 4 °C overnight, Western blot
T2 sequence: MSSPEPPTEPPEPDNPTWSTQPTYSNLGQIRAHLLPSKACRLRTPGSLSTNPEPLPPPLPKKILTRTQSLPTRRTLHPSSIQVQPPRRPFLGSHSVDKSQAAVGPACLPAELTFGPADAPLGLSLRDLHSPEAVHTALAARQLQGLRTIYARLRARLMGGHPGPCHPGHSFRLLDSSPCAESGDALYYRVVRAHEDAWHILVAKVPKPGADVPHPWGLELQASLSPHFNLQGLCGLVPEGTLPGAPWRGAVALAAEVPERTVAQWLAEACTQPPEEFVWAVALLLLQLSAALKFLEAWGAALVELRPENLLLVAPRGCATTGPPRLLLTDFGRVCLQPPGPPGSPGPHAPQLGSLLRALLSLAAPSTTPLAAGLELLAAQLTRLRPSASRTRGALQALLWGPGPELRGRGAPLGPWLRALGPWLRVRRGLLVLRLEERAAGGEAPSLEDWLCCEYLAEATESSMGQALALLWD

[3] = biological target: T3, HA-tagged PEAK3^FL-C453E (human) (UniProt Q6ZS72); assay: as above
T3 sequence: T2 sequence with E436A, C453E

[4] = biological target: T4, HA-tagged PEAK3^FL-L146E (human) (UniProt Q6ZS72); assay: as above
T4 sequence: T2 sequence with L146E, E436A

[5] = biological target: T5, HA-tagged PEAK3FL-S69A (human) (UniProt Q6ZS72); assay: as above
T5 sequence: T2 sequence with S69A, E436A

[6] = biological target: T5, HA-tagged PEAK3FL-S69A (human); assay: co-IP; anti-HA agarose IP from lysates of HEK293 cells expressing HA-PEAK3FL WT or mutants (alone or with Flag-PEAK3FL WT), Western blot

Measured: binding

14-3-3γ (residues 1-247) (human)
no binding: [1]

endogenous 14-3-3 (HEK293) (human (endogenous in HEK293))
not listed: [1]
no binding: all other assays above

From PMC10279719
